{"source": "PubChem BioAssay AID743121 (NCATS, 2013)", "aim": "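Partners whose loss is lethal together with topoisomerase I blockade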 (primary screen)", "system": "MDA-MB-231 cells, a human breast cancer line", "reagent": "single siRNA against human genes, 20 nM siRNA (0.8 pmol per well)", "time to read-out": "120 h (drug added 48 h after transfection, read 72 h later)", "treatment": "camptothecin 20 nM (about EC30) for 72 h; vehicle 0.1% DMSO in parallel plates", "read-out": "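CellTiter-Glo ATP signal, scaled to control siRNA as percent viability; sensitisation given as log2 of untreated divided by camptothecin-treated viability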", "direction": "log2 vehicle/camptothecin viability: higher = stronger sensitisation to camptothecin; viability with camptothecin: higher = more viable cells", "hit rule": "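Active genes have an RSA gene-level p-value below 0.001, computed from the ratios of their separate siRNAs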", "note": "The deposit covers about 26,000 reagents; shown is an unselected part. 167 of all reagents (0.63%) count as active. 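Calls are per gene from RSA p-values that are not deposited; an individual active-marked siRNA can sensitise only weakly.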 Entries without a mark were called inactive. Reagents against one gene are numbered here. Not all columns of the deposit are shown."}
{"target": "IL10 (interleukin 10)", "reagent": 1, "log2 vehicle/camptothecin viability": -0.383, "viability with camptothecin (% of control)": 107}
{"target": "IL10 (interleukin 10)", "reagent": 2, "log2 vehicle/camptothecin viability": 0.111, "viability with camptothecin (% of control)": 86}
{"target": "IL10 (interleukin 10)", "reagent": 3, "log2 vehicle/camptothecin viability": -0.0612, "viability with camptothecin (% of control)": 89.5}
{"target": "IL10 (interleukin 10)", "reagent": 4, "log2 vehicle/camptothecin viability": -0.283, "viability with camptothecin (% of control)": 105}
{"target": "CCND2 (cyclin D2)", "reagent": 1, "log2 vehicle/camptothecin viability": -0.305, "viability with camptothecin (% of control)": 97.3}
{"target": "CCND2 (cyclin D2)", "reagent": 2, "log2 vehicle/camptothecin viability": 0.13, "viability with camptothecin (% of control)": 65.2}
{"target": "CCND2 (cyclin D2)", "reagent": 3, "log2 vehicle/camptothecin viability": -0.111, "viability with camptothecin (% of control)": 54.3}
{"target": "CCND2 (cyclin D2)", "reagent": 4, "log2 vehicle/camptothecin viability": -0.0254, "viability with camptothecin (% of control)": 92.2}
{"target": "OR4N4 (olfactory receptor family 4 subfamily N member 4)", "reagent": 1, "log2 vehicle/camptothecin viability": -0.219, "viability with camptothecin (% of control)": 78.5}
{"target": "OR4N4 (olfactory receptor family 4 subfamily N member 4)", "reagent": 2, "log2 vehicle/camptothecin viability": -0.116, "viability with camptothecin (% of control)": 65.5}
{"target": "OR4N4 (olfactory receptor family 4 subfamily N member 4)", "reagent": 3, "log2 vehicle/camptothecin viability": -0.389, "viability with camptothecin (% of control)": 50.1}
{"target": "OR4N4 (olfactory receptor family 4 subfamily N member 4)", "reagent": 4, "log2 vehicle/camptothecin viability": -0.0921, "viability with camptothecin (% of control)": 29.6}
{"target": "SOD2 (superoxide dismutase 2)", "reagent": 1, "log2 vehicle/camptothecin viability": 0.523, "viability with camptothecin (% of control)": 64.9}
{"target": "SOD2 (superoxide dismutase 2)", "reagent": 2, "log2 vehicle/camptothecin viability": -0.365, "viability with camptothecin (% of control)": 62.5}
{"target": "SOD2 (superoxide dismutase 2)", "reagent": 3, "log2 vehicle/camptothecin viability": -0.103, "viability with camptothecin (% of control)": 71.9}
{"target": "SOD2 (superoxide dismutase 2)", "reagent": 4, "log2 vehicle/camptothecin viability": -0.0797, "viability with camptothecin (% of control)": 106}

A stretch of the results above, for reference:
{"target": "CCND2 (cyclin D2)", "reagent": 4, "log2 vehicle/camptothecin viability": -0.0254, "viability with camptothecin (% of control)": 92.2}
{"target": "OR4N4 (olfactory receptor family 4 subfamily N member 4)", "reagent": 1, "log2 vehicle/camptothecin viability": -0.219, "viability with camptothecin (% of control)": 78.5}
{"target": "OR4N4 (olfactory receptor family 4 subfamily N member 4)", "reagent": 2, "log2 vehicle/camptothecin viability": -0.116, "viability with camptothecin (% of control)": 65.5}

The listing continues.
{"target": "CDK11B (cyclin dependent kinase 11B)", "reagent": 1, "log2 vehicle/camptothecin viability": -0.724, "viability with camptothecin (% of control)": 61.3}
{"target": "CDK11B (cyclin dependent kinase 11B)", "reagent": 2, "log2 vehicle/camptothecin viability": -0.574, "viability with camptothecin (% of control)": 40.3}
{"target": "CDK11B (cyclin dependent kinase 11B)", "reagent": 3, "log2 vehicle/camptothecin viability": -0.309, "viability with camptothecin (% of control)": 24}
{"target": "CDK11B (cyclin dependent kinase 11B)", "reagent": 4, "log2 vehicle/camptothecin viability": -0.616, "viability with camptothecin (% of control)": 45.6}
{"target": "CDK11B (cyclin dependent kinase 11B)", "reagent": 5, "log2 vehicle/camptothecin viability": -0.6, "viability with camptothecin (% of control)": 61.8}
{"target": "CDK11B (cyclin dependent kinase 11B)", "reagent": 6, "log2 vehicle/camptothecin viability": -0.713, "viability with camptothecin (% of control)": 66.2}
{"target": "CDK11B (cyclin dependent kinase 11B)", "reagent": 7, "log2 vehicle/camptothecin viability": -0.478, "viability with camptothecin (% of control)": 17}
{"target": "CDK11B (cyclin dependent kinase 11B)", "reagent": 8, "log2 vehicle/camptothecin viability": -0.46, "viability with camptothecin (% of control)": 47.2}
{"target": "CDK11B (cyclin dependent kinase 11B)", "reagent": 9, "log2 vehicle/camptothecin viability": -0.481, "viability with camptothecin (% of control)": 87.4}
